Measured values from patent US20030148404A1, “Peptides and substances, methods and devices using same for diagnosing and treating neurodegenerative disorders” (Ramot University Authority For Applied Research & …, priority 2000, published 2003).

Key:
[1] = system: anti-NF—H antibodies; assay: ELISA comparison of AD and NC sera with peptides; separation algorithms and grouping of peptides into FACTs; assay type: binding, human; details: for FACT2: similarity of the peptide's profile of signals of 96 serum samples (48 AD, 48 NC) to the ideal peptide profile (=1) of group FACT2; for FACT1: similarity of the peptide's profile of signals of 96 serum samples (48 AD, 48 NC) to the ideal peptide profile (=1) of group FACT1; for FACT3: similarity of the peptide's profile of signals of 96 serum samples (48 AD, 48 NC) to the ideal peptide profile (=1) of group FACT3; for FACT4: similarity of the peptide's profile of signals of 96 serum samples (48 AD, 48 NC) to the ideal peptide profile (=1) of group FACT4
Procedure: A Streptavidin stock solution (2 mg/ml Streptavidin prepared in purified water, aliquoted, and stored at −20° C.) was diluted 1:400 in ddH2O and a 100 μl aliquot was added to each well of a multiwell plate (96 well C-shaped microplates). The plates were incubated at 37° C. overnight until the liquid was entirely evaporated and stored until use at 4° C. in plastic bags containing a desiccating material. Such coated plates retained their activity for at least few days. The plates were washed 4 times by immersing in TBST. 200 μl of blocking solution were added to each of the wells. The plates were then incubated for 1 hour at room temperature. 100 μl of the biotinylated peptide (1 μg/ml in TBST) were added to each of the wells with the exception of the control wells. The plates were then incubated for 1 hour at room temperature.
Following incubation, the plates were washed in TBST 4 times as above. A 100 μl aliquot of serum which was diluted in a dilution buffer was added to each well and the plates were incubated for 1 hour at room temperature.
Following this incubation the wells were washed in TBST 4 times as above. A 100 μl aliquot of a secondary antibody (Goat anti-human IgG Horse radish peroxidase conjugate) which was diluted 1:2000 in dilution buffer was added to each well and the plates were incubated for 1 hour at room temperature.
The wells were then washed in TBST 4 times as above followed by two washes in TBS (TBST w/o Tween-20).
A 100 μl aliquot of the substrate solution was added to each well and the plates were incubated at room temperature.
OD was measured at 450 nm and 620 nm every minute over a period of 10-15 minutes.
Employing the above optimized parameters, eight AD and eight NC sera were analyzed using peptide 3M (SEQ ID NO:31). The experiment was repeated over a period of four days, employing four different plates each day. Two plates were preblocked with Gelatin, while two were not. In one experiment chloroform treated serum was analyzed on two additional plates. Three AD sera consistently gave rise to high signals in all experiments. One AD serum caused high signals in 10 out of the 13 plates and four AD sera were consistently negative. One NC sera caused high signals in some of the plates in the experiments conducted on all four days. Two additional NC sera gave rise to high signals in some of the plates in the experiments conducted on three of the four days. It was observed that when plates were coated with Streptavidin one day prior to the experiment, in contrast to the plates coated in advance and stored at 4° C. for 1-2 weeks, produced much better inter-plate reproducibility (not shown). The reproducibility of the experiments was assessed by averaging the rank-order numbers of each sample in every experiment (Table 3).
Sample numbers 862, 871, 861, and 874, acquired from AD patients, are separated by more than two standard deviation points from sample number 465. Sample number 485 is separated by one standard deviation point from sample number 465. […] However, by combining several peptides both the specificity and sensitivity can be improved.
It will be appreciated that the protocol optimization was done with one single peptide. It was shown that the system is sensitive to changes in peptide concentration, serum concentration and secondary antibody concentration, as a result, optimal conditions were chosen. A preliminary study on a limited number of AD and NC samples gave a sensitivity of 50% ( 4/8) and specificity of 87% (⅞). Using a combination of several peptides will increase both the sensitivity and accuracy. As is shown below, using a combination of several peptides increases both the sensitivity and accuracy.
A series of experiments were performed in which 48 AD and 48 NC were analyzed by the use of 17 different peptides (INO; 2L; 2LR; 3NO; 3L; 3M; 3R; 3LM; 3LR; 4LM; 4MR; 4LMR; 5LM; 6LR; 7MR; 8LMR and 8LMR-V). Two different algorithms were developed to analyze the data. […]

[2] = system: anti-NF—H antibodies; assay: Streptavidin-biotin ELISA: serum IgG binding to biotinylated NF-H peptide (protocol optimisation, pooled AD serum); parameters: species or system human
Procedure: Solutions and Materials: Tris Buffered Saline (TBS): 50 mM Tris-HCl, pH 7.4 (Tris (Sigma, T-1378); HCl (Merck 1.00319.1000)) 200 mM NaCl (Merck, 1.06404.1000). TBST: 0.05% (w/v) Tween-20 (Sigma, P-7949) in TBS. Phosphate Buffered Saline (PBS): 0.1 M phosphate buffer, pH 7.2 (Sodium phosphate, monobasic (Sigma. S-8182) and Sodium phosphate, dibasic (Sigma, S-7907)). 200 mM NaCl (Merck, 1.06404.1000). PBST: 0.05% (w/v) Tween-20 (Sigma, P-7949) in PBS. Dilution/Blocking buffer: 0.5% Gelatin (Difco, 0143-17-9) in TBST. Streptavidin stock solution: 2 mg/ml Streptavidin (Sigma, S4762) in purified water. Aliquoted and kept at −20° C., this solution is stable indefinitely. Multiwell Plates: Nunc Maxisorp (Cat. No. 442404) 96 well C-shaped microplates. Secondary antibody: Goat anti-human IgG Horse radish peroxidase conjugate (Jackson, 109-035-088). Substrate solution: 1 mg/ml OPD (Sigma, P-8412)+0.005% H2O2 (Merck, 1.07210.0250) in […] Sodium Citrate buffer, pH 5 (Merck, 1.00 244.1000).
A Streptavidin stock solution (2 mg/ml Streptavidin prepared in purified water, aliquoted, and stored at −20° C.) was diluted 1:400 in ddH2O and a 100 μl aliquot was added to each well of a multiwell plate (96 well C-shaped microplates). […]
OD was measured at 450 nm and 620 nm every minute over a period of 10-15 minutes. […]

A K S(PO3H) P A E A K S(PO3H) P V K E E A K S P-OH (AKSPAEAKSPVKEEAKSP; phosphoserines) [3LM]
FACT2 [1]: 0.4503 and 0.8326

A K S(PO3H) P V K E E A K S(PO3H) P E K A K S(PO3H) P V-NH2 (AKSPVKEEAKSPEKAKSPV; phosphoserines; C-terminal amide) [8LMR-V]
FACT1 [1]: 0.07948
FACT2 [1]: 0.02508
FACT3 [1]: 0.00015
FACT4 [1]: 0.934

A K S P E K A K S(PO3H) P A E A K S(PO3H) P-OH (AKSPEKAKSPAEAKSP; phosphoserines) [4MR]
FACT1 [1]: 0.8882
FACT2 [1]: 0.2978
FACT3 [1]: 02125
FACT4 [1]: 0.01311

A K S(PO3H) P E K A K S(PO3H) P E K A K S P-OH (AKSPEKAKSPEKAKSP; phosphoserines) [5LM]
FACT1 [1]: 0.3837
FACT2 [1]: 0.6661
FACT3 [1]: 0.3099
FACT4 [1]: −0.1071

A K S(PO3H) P V K E E A K S(PO3H) P E K A K S(PO3H) P-OH (AKSPVKEEAKSPEKAKSP; phosphoserines) [8LMR]
FACT1 [1]: 0.8913
FACT2 [1]: 0.2798
FACT3 [1]: 0.1051
FACT4 [1]: 0.05595

A K S(PO3H) P A E A K S P E K A K S(PO3H) P-OH (AKSPAEAKSPEKAKSP; phosphoserines) [2LR]
FACT1 [1]: 0.8206
FACT2 [1]: −0.05813
FACT3 [1]: 0.07225
FACT4 [1]: −0.04948

A K S(PO3H) P A E A K S P V K E E A K S(PO3H) P-OH (AKSPAEAKSPVKEEAKSP; phosphoserines) [3LR]
FACT1 [1]: 0.8566
FACT2 [1]: 0.2849
FACT3 [1]: 0.08781
FACT4 [1]: 0.03219

A K S P V K E E A K S(PO3H) P E K A K S(PO3H) P-OH (AKSPVKEEAKSPEKAKSP; phosphoserines) [8MR]
FACT1 [1]: 0.7401
FACT2 [1]: −0.04212
FACT3 [1]: 0.2388
FACT4 [1]: 0.1709

A K S(PO3H) P A E A K S P E K A K S P-OH (AKSPAEAKSPEKAKSP; phosphoserine) [2L]
FACT1 [1]: 0.4415
FACT2 [1]: 0.7005
FACT3 [1]: 0.208
FACT4 [1]: 0.1125

A K S(PO3H) P A E A K S P V K E E A K S P-OH (AKSPAEAKSPVKEEAKSP; phosphoserine) [3L]
FACT1 [1]: 0.1423
FACT2 [1]: 0.6955
FACT3 [1]: 0.2727
FACT4 [1]: −0.2767

A K S P V K E E A K S(PO3H) P A E A K S(PO3H) P-OH (AKSPVKEEAKSPAEAKSP; phosphoserines) [7MR]
FACT1 [1]: 0.7754
FACT2 [1]: 0.1265
FACT3 [1]: 0.07956
FACT4 [1]: 0.1147

A K S(PO3H) P E K A K S(PO3H) P A E A K S(PO3H) P-OH (AKSPEKAKSPAEAKSP; phosphoserines) [4LMR]
FACT1 [1]: 0.4508
FACT2 [1]: 0.491
FACT3 [1]: 0.2495
FACT4 [1]: −0.04654

A K S(PO3H) P E K A K S(PO3H) P A E A K S P-OH (AKSPEKAKSPAEAKSP; phosphoserines) [4LM]
FACT1 [1]: 0.178
FACT2 [1]: 0.1252
FACT3 [1]: 0.8196
FACT4 [1]: 0.09459

A K S(PO3H) P E K A K S P V K E E A K S(PO3H) P-OH (AKSPEKAKSPVKEEAKSP; phosphoserines) [6LR]
FACT1 [1]: 0.6779
FACT2 [1]: 0.2428
FACT3 [1]: −0.03787
FACT4 [1]: −0.2026

A K S P A E A K S(PO3H) P V K E E A K S P-OH (AKSPAEAKSPVKEEAKSP; phosphoserine) [3M]
FACT1 [1]: 0.00926
FACT2 [1]: 0.6937
FACT3 [1]: −0.05907
FACT4 [1]: 0.2126
Signal to noise ratio (maximal) ([2]; serum dilution 1:20, pooled AD serum): ~3
Signal to noise ratio ([2]; serum dilution 1:160, pooled AD serum): below 2

“And” between values parts separate entries of the source, which are not always exact repeats. Identical values can stand only once.
